Assay results reported in article doi:10.1101/2025.04.03.646911.
These are yes or no findings as the source states them, for the method shown. Binding seen in cells or lysates may run through a third protein. Some entries that bind do so weakly or less than the wild type. For part of these data: Sequences can lack the tags named with a protein.

The chains behind the UniProt entries cited, without tags or fusion partners. Residues count along the entry.
UniProt Q6UXX9, residues 22-243: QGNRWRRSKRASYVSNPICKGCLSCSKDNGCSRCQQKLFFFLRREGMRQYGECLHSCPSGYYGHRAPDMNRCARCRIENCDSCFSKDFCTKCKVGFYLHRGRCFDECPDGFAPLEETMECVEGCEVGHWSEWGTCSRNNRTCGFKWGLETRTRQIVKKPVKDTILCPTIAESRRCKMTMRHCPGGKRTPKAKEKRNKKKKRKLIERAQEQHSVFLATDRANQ

Columns and labels:
[1] = target: T1, PALMD-eGFP fusion protein (oePALMD) (UniProt Q9NP74); assay: co-IP
T1 sequence: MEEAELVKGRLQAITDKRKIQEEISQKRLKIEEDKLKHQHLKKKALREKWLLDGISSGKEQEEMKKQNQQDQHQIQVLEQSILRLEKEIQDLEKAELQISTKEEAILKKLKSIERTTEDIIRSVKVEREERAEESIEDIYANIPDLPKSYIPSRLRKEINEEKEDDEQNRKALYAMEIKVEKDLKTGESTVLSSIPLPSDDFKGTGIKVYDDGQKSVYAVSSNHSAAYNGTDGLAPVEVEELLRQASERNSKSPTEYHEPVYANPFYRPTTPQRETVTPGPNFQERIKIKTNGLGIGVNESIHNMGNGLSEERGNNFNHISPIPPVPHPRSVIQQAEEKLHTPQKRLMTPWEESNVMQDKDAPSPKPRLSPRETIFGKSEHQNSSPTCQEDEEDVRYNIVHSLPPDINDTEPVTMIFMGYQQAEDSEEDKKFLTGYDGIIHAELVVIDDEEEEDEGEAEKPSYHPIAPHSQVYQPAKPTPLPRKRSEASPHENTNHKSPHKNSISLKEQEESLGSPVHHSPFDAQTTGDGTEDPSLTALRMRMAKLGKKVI

[2] = target: T2, Palmdelphin (PALMD) (human (endogenous in HCT116 and SW480)) (UniProt Q9NP74); assay: co-IP
T2 sequence: T1 sequence

[3] = target: T3, PALMD-GFP2 (UniProt Q9NP74); assay: FRET or BRET
T3 sequence: T1 sequence

binding [1] | binding [2] | binding [3] | Substance
binds | binds |  | R-spondin2 (RSPO2) (from UniProt Q6UXX9 22-243)
 |  | binds | RSPO2-Rluc8 (from UniProt Q6UXX9 22-243)
